Data from US20200172486A1, “PYRIDONE COMPOUNDS AND AGRICULTURAL AND HORTICULTURAL FUNGICIDES CONTAINING THE SAME AS ACTIVE INGREDIENTS” (MITSUI CHEMICALS AGRO, INC., priority 2017, published 2020).
Some entries share one result that the patent states for a list of compounds. At least one compound was matched to its structure with a doubt left.

Experiments:
[1] = tested on: grape downy mildew fungus (Plasmopara viticola); experiment: Test Example G: grape downy mildew, spray test on potted grape plants; settings: grape (Neomuscat), 250 ppm spray 2.5 ml/pot before inoculation, 7 to 10 days after inoculation
[2] = tested on: cucumber anthracnose fungi (Colletotrichum orbiculare); experiment: Test Example H: cucumber anthracnose, spray test on potted cucumber plants; settings: cucumber (Sagami Hanjiro), 250 ppm spray 2.5 ml/pot before inoculation, 6 to 10 days after inoculation
[3] = tested on: cabbage alternaria sooty spot fungi (Alternaia brassicicola); experiment: Test Example C: cabbage alternaria sooty spot, spray test on potted cabbage plants; settings: cabbage (Shikidori), 250 ppm spray 2.5 ml/pot before inoculation, 2 to 3 days after inoculation
[4] = tested on: gray mold fungi (Botrytis cinerea); experiment: Test Example B: tomato gray mold, spray test on potted tomato plants; settings: tomato (Oogata Fukuju), 250 ppm spray 2.5 ml/pot before inoculation, 2 to 3 days after inoculation

Compound: CCn1c(-c2ccc(C#N)cc2)c(NC)cc(Cl)c1=O [Compound 66]
- control value [1]: > 50%

Compound: CCn1c(-c2ccc(OC)cc2)c(N)cc(Cl)c1=O [Compound 92]
- control value [1]: > 50%
- control value [2]: > 50%

Compound: CCOC(=O)C=Nc1cc(Cl)c(=O)n(CC)c1-c1c(F)cc(F)cc1F [Compound 115]
- control value [1]: > 50%
- control value [2]: > 50%

Compound: CCn1c(-c2ccc(F)cc2)c(NCC(F)F)cc(Cl)c1=O [Compound 83]
- control value [1]: > 50%

Compound: Nc1cc(Cl)c(=O)n(CC(F)F)c1-c1ccc(F)cc1 [Compound 78]
- control value [1]: > 50%

Compound: CCn1c(-c2ccccc2Cl)c(N)cc(Cl)c1=O [compound 428]
- control value [1]: > 50%
- control value [2]: > 50%

Compound: CCn1c(-c2ccc(F)cc2)c(N)cc(Cl)c1=O [Compound 21]
- control value [1]: > 50%
- control value [2]: > 50%

Compound: CCn1c(-c2ccccc2Cl)c(NC)cc(Br)c1=O [compound 433]
- control value [1]: > 50%
- control value [2]: > 50%

Compound: CCn1c(-c2ccc(F)cc2Br)c(N)cc(Br)c1=O [Compound 279]
- control value [1]: > 50%
- control value [2]: > 50%

Compound: CCNc1cc(Cl)c(=O)n(CC)c1-c1ccc(F)cc1C [compound 390]
- control value [1]: > 50%
- control value [2]: > 50%

Compound: CCn1c(-c2ccc(F)cc2F)c(N)cc(Br)c1=O [Compound 256]
- control value [1]: > 50%

Compound: CCn1c(-c2ccccc2)c(NC(C)C)cc(Cl)c1=O [Compound 174]
- control value [1]: > 50%
- control value [2]: > 50%

Compound: CCn1c(-c2ccc(F)cc2)c(NC(C)C)cc(Cl)c1=O [Compound 250]
- control value [1]: > 50%
- control value [2]: > 50%

Compound: CCn1c(-c2ccc(F)cc2F)c(NC)cc(Br)c1=O [Compound 269]
- control value [1]: > 50%
- control value [2]: > 50%

Compound: CCn1c(-c2c(F)cc(F)cc2F)c(N)cc(Br)c1=O [Compound 63]
- control value [1]: > 50%

Compound: CCn1c(-c2ccc(F)cc2C)c(NC)cc(Cl)c1=O [compound 389]
- control value [1]: > 50%
- control value [2]: > 50%

Compound: CCN(c1cc(Br)c(=O)n(CC)c1-c1ccccc1)C(C)C [Compound 188]
- control value [1]: > 50%
- control value [2]: > 50%

Compound: CCn1c(-c2ccc(F)cc2Cl)c(NC(C)=O)cc(Cl)c1=O [Compound 55]
- control value [1]: > 50%

Compound: CCn1c(-c2c(F)cccc2F)c(N)cc(Cl)c1=O [Compound 59, 5-amino-3-chloro-6-(2,6-difluorophenyl)-1-ethylpyridin-2(1H)-one]
- control value [1]: > 50%

Compound: CCn1c(-c2c(F)cc(F)cc2F)c(NC)cc(Br)c1=O [Compound 61]
- control value [1]: > 50%

Compound: CCn1c(-c2ccccc2Br)c(NC)cc(Br)c1=O [compound 397]
- control value [1]: > 50%
- control value [2]: > 50%

Compound: CCn1c(-c2c(F)cccc2F)c(N2CCOCC2)cc(Cl)c1=O [compound 426, 3-chloro-6-(2,6-difluorophenyl)-1-ethyl-5-morpholinopyridin-2(1H)-one]
- control value [1]: > 50%

Compound: CCn1c(-c2c(F)cccc2F)c(N(C)C)cc(Cl)c1=O [Compound 4, 3-chloro-6-(2,6-difluorophenyl)-5-(dimethylamino)-1-ethyl-pyridin-2(1H)-one]
- control value [1]: > 50%

Compound: CCn1c(-c2ccccc2)c(NC(C)C)cc(Br)c1=O [Compound 175]
- control value [1]: > 50%
- control value [2]: > 50%

Compound: CCCCCCn1c(-c2ccc(F)cc2)c(N)cc(Cl)c1=O [Compound 110]
- control value [1]: > 50%

Compound: CCn1c(-c2c(F)cccc2F)c(N)cc(Br)c1=O [Compound 180]
- control value [1]: > 50%

Compound: CCn1c(-c2ccc(F)cc2)c(N(C)C(=O)OC(C)(C)C)cc(Cl)c1=O [Compound 15]
- control value [1]: > 50%

Compound: CCNc1cc(Cl)c(=O)n(CC(F)F)c1-c1ccc(F)cc1 [Compound 80]
- control value [1]: > 50%

Compound: CCNc1cc(Cl)c(=O)n(CC)c1-c1ccc(C#N)cc1 [Compound 67]
- control value [1]: > 50%

Compound: CCCCNc1cc(Cl)c(=O)n(CC)c1-c1ccc(F)cc1 [Compound 46]
- control value [1]: > 50%
- control value [2]: > 50%

Compound: CCn1c(-c2ccccc2)c(NC)cc(Cl)c1=O [Compound 246]
- control value [1]: > 50%
- control value [2]: > 50%

Compound: CCn1c(-c2ccccc2F)c(N)cc(Cl)c1=O [compound 434]
- control value [1]: > 50%
- control value [2]: > 50%

Compound: CCn1c(-c2ccccc2)c(NC)cc(Br)c1=O [Compound 247]
- control value [1]: > 50%
- control value [2]: > 50%

Compound: CCn1c(-c2ccccc2Cl)c(NC)cc(Cl)c1=O [compound 427]
- control value [1]: > 50%
- control value [2]: > 50%

Compound: CCn1c(-c2ccc(F)cc2F)c(NC)cc(Cl)c1=O [Compound 268]
- control value [1]: > 50%
- control value [2]: > 50%

Compound: CCn1c(-c2ccc(F)cc2C)c(N)cc(Cl)c1=O [compound 348]
- control value [1]: > 50%
- control value [2]: > 50%

Compound: CCn1c(-c2ccc(F)cc2Cl)c(NCC#N)cc(Cl)c1=O [compound 351]
- control value [1]: > 50%

Compound: CCNc1cc(Cl)c(=O)n(CC)c1-c1ccccc1 [Compound 248]
- control value [1]: > 50%
- control value [2]: > 50%

Compound: CCNc1cc(Cl)c(=O)n(CC)c1-c1ccc(F)cc1 [Compound 20, 3-chloro-1-ethyl-5-(ethylamino)-6-(4-fluorophenyl)pyridin-2(1H)-one]
- control value [1]: > 50%

Compound: CCn1c(-c2c(F)cc(F)cc2F)c(Nc2cccc(OC)c2)cc(Br)c1=O [Compound 178]
- control value [1]: > 50%

Compound: CCCCn1c(-c2ccc(F)cc2)c(N)cc(Cl)c1=O [Compound 109]
- control value [1]: > 50%
- control value [2]: > 50%

Compound: CCn1c(-c2ccc(F)cc2Br)c(N)cc(Cl)c1=O [Compound 278]
- control value [1]: > 50%
- control value [2]: > 50%

Compound: CCn1c(-c2c(F)cccc2F)c(Nc2ccccc2)cc(Cl)c1=O [compound 317, 3-chloro-6-(2,6-difluorophenyl)-1-ethyl-5-(phenylamino)pyridin-2(1H)-one]
- control value [1]: > 50%

Compound: CCn1c(-c2ccc(F)cc2C)c(NC(C)C)cc(Br)c1=O [compound 357]
- control value [1]: > 50%

Compound: CCn1c(-c2ccc(F)cc2C)c(NCC(F)F)cc(Cl)c1=O [compound 395]
- control value [1]: > 50%
- control value [2]: > 50%

Compound: CCn1c(-c2ccccc2Br)c(N)cc(Cl)c1=O [compound 430]
- control value [1]: > 50%
- control value [2]: > 50%

Compound: CNc1cc(Cl)c(=O)n(CC(F)F)c1-c1ccc(F)cc1 [Compound 79]
- control value [1]: > 50%

Compound: CCn1c(-c2ccc(F)cc2Br)c(NC)cc(Cl)c1=O [Compound 290]
- control value [1]: > 50%
- control value [2]: > 50%

Compound: CCn1c(-c2ccc(C#N)cc2)c(N)cc(Cl)c1=O [Compound 68]
- control value [1]: > 50%

Compound: CCn1c(-c2ccccc2Br)c(NC)cc(Cl)c1=O [compound 432]
- control value [1]: > 50%
- control value [2]: > 50%

Compound: CCn1c(-c2ccc(F)cc2Br)c(NC)cc(Br)c1=O [Compound 291]
- control value [1]: > 50%
- control value [2]: > 50%

Compound: Cn1c(-c2ccc(F)cc2)c(N)cc(Cl)c1=O [Compound 210]
- control value [1]: > 50%
- control value [2]: > 50%

Compound: CCn1c(-c2ccccc2F)c(NC)cc(Cl)c1=O [compound 436]
- control value [1]: > 50%
- control value [2]: > 50%

Compound: CCNc1cc(Br)c(=O)n(CC)c1-c1ccccc1 [Compound 249]
- control value [1]: > 50%
- control value [2]: > 50%

Compound: CCn1c(-c2ccccc2Cl)c(N)cc(Br)c1=O [compound 429]
- control value [1]: > 50%
- control value [2]: > 50%

Compound: CCCNc1cc(Cl)c(=O)n(CC)c1-c1ccc(F)cc1 [Compound 45]
- control value [1]: > 50%
- control value [2]: > 50%

Compound: CCn1c(-c2cc(F)cc(F)c2)c(N)cc(Cl)c1=O [Compound 171]
- control value [1]: > 50%
- control value [2]: > 50%

Compound: CCn1c(-c2ccccc2)c(N)cc(Br)c1=O [Compound 173]
- control value [1]: > 50%
- control value [2]: > 50%

Compound: CCn1c(-c2ccc(F)cc2)c(NC(C)C)cc(Br)c1=O [Compound 239]
- control value [1]: > 50%

Compound: CCn1c(-c2ccc(F)cc2Cl)c(N)cc(Cl)c1=O [Compound 32, 5-amino-3-chloro-6-(2-chloro-4-fluorophenyl)-1-ethylpyridin-2(1H)-one]
- control value [1]: > 50%

Compound: CCn1c(-c2ccc(F)cc2F)c(N(C)CC(F)F)cc(Cl)c1=O [compound 361]
- control value [3]: > 50%
- control value [4]: > 50%
- control value [2]: > 50%

Compound: CCN(CC)c1cc(Br)c(=O)n(CC)c1-c1ccccc1Br [compound 396]
- control value [3]: > 50%
- control value [4]: > 50%
- control value [2]: > 50%

Compound: CCN(CC)c1cc(Cl)c(=O)n(CC)c1-c1ccc(F)cc1 [Compound 22]
- control value [3]: > 50%
- control value [4]: > 50%
- control value [2]: > 50%

Compound: C#CCN(CC)c1cc(Br)c(=O)n(CC)c1-c1ccccc1Cl [Compound 206]
- control value [3]: > 50%
- control value [4]: > 50%
- control value [2]: > 50%

Compound: C#CCN(CC)c1cc(Cl)c(=O)n(CC)c1-c1ccc(F)cc1Cl [Compound 219]
- control value [3]: > 50%
- control value [4]: > 50%
- control value [2]: > 50%

Compound: C#CCN(C)c1cc(Br)c(=O)n(CC(F)F)c1-c1c(F)cc(F)cc1F [Compound 160]
- control value [3]: > 50%
- control value [4]: > 50%
- control value [2]: > 50%

Compound: CCCCN(C)c1cc(Br)c(=O)n(CC)c1-c1ccc(F)cc1Cl [compound 416]
- control value [3]: > 50%
- control value [4]: > 50%
- control value [2]: > 50%
